According to article PMC5075406:
These are yes or no findings as the source states them, for the method shown. In cells and extracts the contact can be indirect. Some entries that bind do so weakly or less than the wild type. Each block holds one substance with its values, some of them ahead of it.

Sequences of proteins named here, by UniProt entry; tags and fusion partners are left off. A change or cut given only in a name is not applied to a line headed by its entry. Residues count along the entry.
UniProt P28799, residues 18-593: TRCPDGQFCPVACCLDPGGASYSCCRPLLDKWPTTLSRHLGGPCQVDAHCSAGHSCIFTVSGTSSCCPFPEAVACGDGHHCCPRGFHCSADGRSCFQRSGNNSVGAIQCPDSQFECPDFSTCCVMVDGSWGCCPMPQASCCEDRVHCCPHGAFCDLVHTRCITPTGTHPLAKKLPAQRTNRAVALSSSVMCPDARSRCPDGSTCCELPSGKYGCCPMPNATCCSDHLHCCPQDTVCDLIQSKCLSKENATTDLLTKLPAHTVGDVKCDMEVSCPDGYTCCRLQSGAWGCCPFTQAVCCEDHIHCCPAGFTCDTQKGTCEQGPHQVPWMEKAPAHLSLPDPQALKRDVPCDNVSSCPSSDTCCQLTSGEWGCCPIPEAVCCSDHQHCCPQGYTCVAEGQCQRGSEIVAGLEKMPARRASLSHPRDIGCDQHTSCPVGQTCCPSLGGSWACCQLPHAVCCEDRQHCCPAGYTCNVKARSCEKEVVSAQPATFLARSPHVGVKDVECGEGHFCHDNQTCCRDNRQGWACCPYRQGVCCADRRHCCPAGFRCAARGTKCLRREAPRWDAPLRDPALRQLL
UniProt P46531: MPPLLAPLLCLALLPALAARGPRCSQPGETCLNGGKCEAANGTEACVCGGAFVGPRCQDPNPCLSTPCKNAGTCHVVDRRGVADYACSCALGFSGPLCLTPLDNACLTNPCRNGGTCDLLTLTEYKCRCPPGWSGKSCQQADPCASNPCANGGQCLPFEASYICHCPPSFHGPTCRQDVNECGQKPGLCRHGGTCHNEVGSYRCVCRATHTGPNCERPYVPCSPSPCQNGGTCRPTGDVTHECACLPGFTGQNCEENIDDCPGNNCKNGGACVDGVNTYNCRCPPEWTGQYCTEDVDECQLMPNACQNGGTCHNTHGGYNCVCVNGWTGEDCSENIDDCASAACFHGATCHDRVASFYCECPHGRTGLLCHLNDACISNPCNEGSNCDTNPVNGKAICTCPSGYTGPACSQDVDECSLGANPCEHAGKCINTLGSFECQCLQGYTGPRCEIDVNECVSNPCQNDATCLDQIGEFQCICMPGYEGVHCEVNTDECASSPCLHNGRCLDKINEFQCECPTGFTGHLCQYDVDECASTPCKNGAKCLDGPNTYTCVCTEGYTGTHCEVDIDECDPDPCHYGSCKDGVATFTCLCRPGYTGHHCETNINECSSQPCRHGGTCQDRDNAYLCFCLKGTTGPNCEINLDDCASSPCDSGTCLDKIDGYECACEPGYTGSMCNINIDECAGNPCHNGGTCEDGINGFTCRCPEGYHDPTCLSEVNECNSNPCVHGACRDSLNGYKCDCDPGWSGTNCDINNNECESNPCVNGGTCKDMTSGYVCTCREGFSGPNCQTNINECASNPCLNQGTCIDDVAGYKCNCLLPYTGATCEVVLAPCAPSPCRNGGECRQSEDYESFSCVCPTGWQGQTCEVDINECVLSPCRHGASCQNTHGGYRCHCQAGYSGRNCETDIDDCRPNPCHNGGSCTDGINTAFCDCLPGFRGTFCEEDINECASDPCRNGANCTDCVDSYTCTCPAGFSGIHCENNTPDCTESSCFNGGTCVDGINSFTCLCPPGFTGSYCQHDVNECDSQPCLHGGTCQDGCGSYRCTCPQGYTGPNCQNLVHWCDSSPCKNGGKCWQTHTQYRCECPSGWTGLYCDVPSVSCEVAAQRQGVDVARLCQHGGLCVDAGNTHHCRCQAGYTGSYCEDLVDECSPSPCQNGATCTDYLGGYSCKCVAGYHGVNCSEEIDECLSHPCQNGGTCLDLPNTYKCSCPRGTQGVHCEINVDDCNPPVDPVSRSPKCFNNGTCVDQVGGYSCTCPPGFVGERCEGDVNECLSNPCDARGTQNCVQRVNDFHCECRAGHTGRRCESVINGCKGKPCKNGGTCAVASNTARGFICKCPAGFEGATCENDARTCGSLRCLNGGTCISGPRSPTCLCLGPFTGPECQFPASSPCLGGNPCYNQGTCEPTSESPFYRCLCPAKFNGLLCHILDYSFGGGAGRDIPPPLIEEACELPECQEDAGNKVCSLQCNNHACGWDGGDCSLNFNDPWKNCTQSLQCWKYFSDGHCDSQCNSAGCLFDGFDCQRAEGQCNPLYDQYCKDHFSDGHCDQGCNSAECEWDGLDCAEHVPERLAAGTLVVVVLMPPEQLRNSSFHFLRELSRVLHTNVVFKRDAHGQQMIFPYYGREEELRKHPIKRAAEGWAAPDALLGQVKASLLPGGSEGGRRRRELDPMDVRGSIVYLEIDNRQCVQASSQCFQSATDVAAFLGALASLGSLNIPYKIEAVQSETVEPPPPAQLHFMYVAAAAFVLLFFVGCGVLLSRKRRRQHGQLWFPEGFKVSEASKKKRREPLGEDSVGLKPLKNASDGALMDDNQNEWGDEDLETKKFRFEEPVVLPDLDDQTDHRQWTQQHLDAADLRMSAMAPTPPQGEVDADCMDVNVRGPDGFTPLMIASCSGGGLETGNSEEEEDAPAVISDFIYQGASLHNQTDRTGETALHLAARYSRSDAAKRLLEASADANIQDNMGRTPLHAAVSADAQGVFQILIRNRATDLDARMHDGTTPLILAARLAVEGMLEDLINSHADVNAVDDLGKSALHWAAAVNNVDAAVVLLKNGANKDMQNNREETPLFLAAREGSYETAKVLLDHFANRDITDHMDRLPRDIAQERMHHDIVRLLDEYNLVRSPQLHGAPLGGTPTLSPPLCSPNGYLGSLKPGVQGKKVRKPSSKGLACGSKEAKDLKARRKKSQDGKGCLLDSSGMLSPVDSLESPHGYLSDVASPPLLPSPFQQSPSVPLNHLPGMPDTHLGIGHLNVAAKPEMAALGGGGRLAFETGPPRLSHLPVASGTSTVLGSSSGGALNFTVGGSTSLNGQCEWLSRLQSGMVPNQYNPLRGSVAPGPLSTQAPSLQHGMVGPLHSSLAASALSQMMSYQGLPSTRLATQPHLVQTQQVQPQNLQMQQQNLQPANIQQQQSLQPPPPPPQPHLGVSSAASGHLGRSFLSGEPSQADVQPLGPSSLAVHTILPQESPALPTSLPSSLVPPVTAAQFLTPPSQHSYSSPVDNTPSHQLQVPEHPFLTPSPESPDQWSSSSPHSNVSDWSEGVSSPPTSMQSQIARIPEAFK
UniProt Q99466, residues 24-2003: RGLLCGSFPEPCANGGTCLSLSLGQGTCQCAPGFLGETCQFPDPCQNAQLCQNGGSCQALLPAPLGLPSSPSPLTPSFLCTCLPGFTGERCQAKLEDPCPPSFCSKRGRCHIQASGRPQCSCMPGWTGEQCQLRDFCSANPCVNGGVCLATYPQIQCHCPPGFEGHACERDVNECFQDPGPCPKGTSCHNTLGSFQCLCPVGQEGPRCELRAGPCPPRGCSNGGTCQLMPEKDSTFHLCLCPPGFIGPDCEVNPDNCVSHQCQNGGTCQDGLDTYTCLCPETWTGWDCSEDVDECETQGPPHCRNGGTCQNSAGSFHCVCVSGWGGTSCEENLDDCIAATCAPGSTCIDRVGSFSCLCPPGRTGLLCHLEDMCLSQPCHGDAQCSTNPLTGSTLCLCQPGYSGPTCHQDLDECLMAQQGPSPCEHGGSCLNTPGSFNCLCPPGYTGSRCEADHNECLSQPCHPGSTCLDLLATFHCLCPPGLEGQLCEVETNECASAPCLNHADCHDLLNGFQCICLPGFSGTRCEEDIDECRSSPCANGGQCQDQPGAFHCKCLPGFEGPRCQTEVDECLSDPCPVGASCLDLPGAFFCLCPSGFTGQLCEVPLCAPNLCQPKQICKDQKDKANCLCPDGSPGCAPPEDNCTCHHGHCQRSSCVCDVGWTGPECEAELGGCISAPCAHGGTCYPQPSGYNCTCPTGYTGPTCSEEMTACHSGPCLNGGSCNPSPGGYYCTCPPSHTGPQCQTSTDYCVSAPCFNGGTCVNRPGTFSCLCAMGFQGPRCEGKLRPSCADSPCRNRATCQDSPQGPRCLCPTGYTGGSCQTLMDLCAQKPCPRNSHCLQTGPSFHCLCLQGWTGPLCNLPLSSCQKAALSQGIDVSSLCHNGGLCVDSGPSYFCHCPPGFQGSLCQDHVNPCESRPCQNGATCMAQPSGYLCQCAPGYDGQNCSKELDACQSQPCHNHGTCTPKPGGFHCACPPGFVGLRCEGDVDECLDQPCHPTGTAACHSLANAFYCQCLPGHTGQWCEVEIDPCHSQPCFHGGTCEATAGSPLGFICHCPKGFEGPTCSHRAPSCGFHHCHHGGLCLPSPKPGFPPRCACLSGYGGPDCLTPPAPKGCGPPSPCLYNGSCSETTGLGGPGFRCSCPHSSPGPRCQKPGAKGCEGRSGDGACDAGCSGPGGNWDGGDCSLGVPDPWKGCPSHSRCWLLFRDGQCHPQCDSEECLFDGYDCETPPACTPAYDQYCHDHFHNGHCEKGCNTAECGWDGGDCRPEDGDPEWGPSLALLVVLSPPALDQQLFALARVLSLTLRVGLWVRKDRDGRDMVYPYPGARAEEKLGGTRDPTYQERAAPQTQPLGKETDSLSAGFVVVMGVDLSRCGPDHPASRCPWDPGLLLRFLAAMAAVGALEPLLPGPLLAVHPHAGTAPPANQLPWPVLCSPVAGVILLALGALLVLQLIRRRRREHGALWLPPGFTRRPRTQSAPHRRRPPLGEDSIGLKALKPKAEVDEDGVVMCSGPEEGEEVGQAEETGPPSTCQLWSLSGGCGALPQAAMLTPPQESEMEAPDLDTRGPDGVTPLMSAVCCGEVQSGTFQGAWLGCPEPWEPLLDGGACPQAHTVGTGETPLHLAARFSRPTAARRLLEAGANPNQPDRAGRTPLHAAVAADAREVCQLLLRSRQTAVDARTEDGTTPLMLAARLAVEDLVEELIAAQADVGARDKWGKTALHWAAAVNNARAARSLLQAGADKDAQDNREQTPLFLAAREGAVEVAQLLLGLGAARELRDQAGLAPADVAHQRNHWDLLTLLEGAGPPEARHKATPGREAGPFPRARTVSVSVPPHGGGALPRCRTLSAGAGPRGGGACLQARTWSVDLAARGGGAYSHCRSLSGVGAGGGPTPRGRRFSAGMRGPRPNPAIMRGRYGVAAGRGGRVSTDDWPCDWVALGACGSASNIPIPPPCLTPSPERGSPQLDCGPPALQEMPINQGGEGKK

Tests used:
[1] = molecular target: full-length non-tagged human progranulin (human) (UniProt P28799); assay: co-IP; HEK293 cells transiently co-transfected with Flag-tagged human Notch receptors and non-tagged human progranulin; lysate supernatants; IP with anti-Flag or anti-progranulin (N19) on Immunosorb A overnight at 4 °C; beads washed 3x in lysis buffer; immunoblot with anti-Flag and anti-progranulin
[2] = molecular target: Flag-tagged full-length human progranulin (human) (UniProt P28799); assay: co-IP; HEK293 cells transiently co-transfected with Notch1-ECD-V5 or Notch1-ICD-V5 and progranulin-Flag (human proteins; repeated with the mouse proteins); lysate supernatants; IP with anti-Flag or anti-V5 on Immunosorb A overnight at 4 °C; immunoblot with anti-V5 and anti-Flag
[3] = molecular target: Flag-tagged human Notch1 (human) (UniProt P46531); assay: co-IP; HEK293 cells transiently co-transfected with Flag-tagged human Notch receptors and non-tagged human progranulin; lysate supernatants; IP with anti-Flag or anti-progranulin (N19) on Immunosorb A overnight at 4 °C; beads washed 3x in lysis buffer; immunoblot with anti-Flag and anti-progranulin
[4] = molecular target: Flag-tagged human Notch2 (human) (UniProt Q04721); assay: as above
[5] = molecular target: Flag-tagged human Notch3 (human) (UniProt Q9UM47); assay: as above
[6] = molecular target: Flag-tagged human Notch4 (human) (UniProt Q99466); assay: as above
hNotch1-ECD-V5 (human) = hNotch1-ECD-V5 (human) (UniProt P46531); assay: co-IP; HEK293 cells transiently co-transfected with Notch1-ECD-V5 or Notch1-ICD-V5 and progranulin-Flag (human proteins; repeated with the mouse proteins); lysate supernatants; IP with anti-Flag or anti-V5 on Immunosorb A overnight at 4 °C; immunoblot with anti-V5 and anti-Flag

Substance: Flag-tagged human Notch4 (from UniProt Q99466 24-2003) (receptor)
- binding [1]: binds

Substance: Flag-tagged human Notch3 (from UniProt Q9UM47 40-2321) (receptor)
- binding [1]: binds

Substance: hNotch1-ECD-V5 (from UniProt P46531 19-1735) (domain or fragment)
- binding [2]: binds

The remaining lines, values ahead:

- binding [1]: binds
Substance: Flag-tagged human Notch2 (from UniProt Q04721 26-2471) (receptor)

- binding [3]: binds
- binding [4]: binds
- binding [5]: binds
- binding [6]: binds
Substance: full-length non-tagged human progranulin (from UniProt P28799 18-593)

- binding (hNotch1-ECD-V5 (human)): binds
Substance: Flag-tagged full-length human progranulin (from UniProt P28799 18-593)

- binding [1]: binds
Substance: Flag-tagged human Notch1 (from UniProt P46531 19-2555) (receptor)
